This note sets out measurements from patent US6015838A, “Aqueous film-forming foam compositions” (3M Innovative Properties Company, priority 1996, dated 2000).

The data set is described as follows: Emulsion polymerization of hexafluoropropylene and vinylidene fluoride with surfactant as emulsifier. From the text:
The following procedure was used to evaluate C7 F15 CF(CF3)COO^- NH4^+ (from Ex. M1) as an emulsifier to copolymerize hexafluoropropylene (HFP) and vinylidene fluoride.
A 1 gallon, vertically agitated stainless steel reactor with pressure and temperature controls was evacuated and twice purged with nitrogen. Using an isolated vacuum, a solution comprised of 2 g of ammonium persulfate (initiator) and 6 g of dipotassium phosphate dissolved in 2800 g of deionized water was introduced into the reactor. The remaining vacuum on the reactor was vented with nitrogen, and the solution was degassed twice under agitation using alternate vacuum and nitrogen purges. […] The reactor was vented with nitrogen, the solution was agitated very briefly, and the reactor was evacuated of nitrogen and isolated. Then the reactor was vented with hexafluoropropylene monomer to a pressure of approximately 10 psig (1280 torr total pressure), and the temperature of the batch was raised to 72° C. with high agitation. Maintaining the temperature at 72° C., a monomer mixture of 60% (wt) of vinylidene fluoride and 40% (wt) hexafluoropropylene was fed from a tared gas cylinder into the head space of the reactor to maintain a reactor pressure of 130 psig (7480 total pressure). After feeding in about 1 kg of monomer blend (approximately 3.75 hours duration), the introduction of monomer was ceased, the reaction was allowed to cool to room temperature, and any residual unreacted monomer was vented.
The resulting latex polymer was drained from the reactor, and percent solids of the latex was determined to be 25% by weight as measured by drying 10 g of latex in a forced air oven for 16 hours at 105° C.
The reactor body was separated from the reactor head, and a visual inspection of the reactor was made to determine the amount of coagulated polymer in the reactor (the amount should be minimal in a good polymerization reaction). A qualitative rating was assessed, ranging from "none" to "little" to "some."
The latex stability was determined by half filling a 16 oz (450 mL) jar with latex and shaking several hours in the horizontal position, quantitatively rating the latex after shaking using a 3-point scale ranging from 0=very stable to 3=unstable.
Particle size in the latex was determined using […] on a Coulter sub-micron particle size analyzer.
Degree of foaming was rated using the following qualitative scale: 0=not foamy, 1=slightly foamy, 2=moderately foamy, and 3=very foamy.
In Example P2, the same experiment was run as in Example P1, except that the concentration of C7 F15 CF(CF3)COO^- NH4^+ emulsifier was raised to 3500 ppm, the reaction time decreased from 3.75 to 3.5 hours, and the reaction temperature increased from 72° C. to 78° C.
In Comparative Examples P3-P6, the same experiment was run as in Example P1, except that C8 F17 SO2 N(C2 H5)CH2 COO^- K^+ (Fluorad™ FC-128 Fluorochemical Surfactant, available from 3M Company, St. Paul, Minn.), C7 F15 COO^- H4 N^+ (Fluorad™ FC-143 Fluorochemical Surfactant), and Surflon™ S111S Fluorochemical Surfactant (believed to be nominally telomer-based n-C9 F19 COO^- H4 N^+, commercially available from Asahi Glass Corp., Japan) were substituted for C7 F15 CF(CF3)COO^- H4 N^+ emulsifier.

`CCN(CC(=O)O)S(=O)(=O)C(F)(F)C(F)(F)C(F)(F)C(F)(F)C(F)(F)C(F)(F)C(F)(F)C(F)(F)F` [Fluorad ™ FC-128, C8 F17 SO2 N(C2 H5)CH2 COO^- K^+]: the Coagulation entry reads like this: (100 ppm emulsifier) “some”; (350 ppm emulsifier) “none”.

Turning to `N.O=C(O)C(F)(F)C(F)(F)C(F)(F)C(F)(F)C(F)(F)C(F)(F)C(F)(F)C(F)(F)C(F)(F)F` [Surflon ™ S111S, n-C9 F19 COO^- H4 N^+], the Coagulation result (350 ppm emulsifier) was “some”.

For `O=C(O)C(F)(F)C(F)(F)C(F)(F)C(F)(F)C(F)(F)C(F)(F)C(F)(F)F` [FC-143, C7 F15 COO^- H4 N^+], for the setting “350 ppm emulsifier”, the Coagulation entry was “some”.

As for `O=C(O)C(F)(C(F)(F)F)C(F)(F)C(F)(F)C(F)(F)C(F)(F)C(F)(F)C(F)(F)C(F)(F)F` (stereo not shown) [Example M14, C7 F15 CF(CF3)COO^- H4 N^+], the Coagulation entry (350 ppm emulsifier) is “some”; the Coagulation result (3500 ppm emulsifier, 78° C., listed as C7 F15 CF(CF3)COO^- NH4^+) is “none and coagulation was eliminated”. Moreover, the “latex particle Size” value (3500 ppm emulsifier, 78° C.) stood at 69 nm.
